# Test results published in article PMC7153038, “Pharmacologic inhibition of RGD‐binding integrins ameliorates fibrosis and improves function following kidney injury” (Physiological Reports, 2020).
# The chains behind the UniProt entries cited, without tags or fusion partners. Where a name states a change or a piece, a line headed by the entry shows the natural chain unless it says otherwise.
# UniProt P53708: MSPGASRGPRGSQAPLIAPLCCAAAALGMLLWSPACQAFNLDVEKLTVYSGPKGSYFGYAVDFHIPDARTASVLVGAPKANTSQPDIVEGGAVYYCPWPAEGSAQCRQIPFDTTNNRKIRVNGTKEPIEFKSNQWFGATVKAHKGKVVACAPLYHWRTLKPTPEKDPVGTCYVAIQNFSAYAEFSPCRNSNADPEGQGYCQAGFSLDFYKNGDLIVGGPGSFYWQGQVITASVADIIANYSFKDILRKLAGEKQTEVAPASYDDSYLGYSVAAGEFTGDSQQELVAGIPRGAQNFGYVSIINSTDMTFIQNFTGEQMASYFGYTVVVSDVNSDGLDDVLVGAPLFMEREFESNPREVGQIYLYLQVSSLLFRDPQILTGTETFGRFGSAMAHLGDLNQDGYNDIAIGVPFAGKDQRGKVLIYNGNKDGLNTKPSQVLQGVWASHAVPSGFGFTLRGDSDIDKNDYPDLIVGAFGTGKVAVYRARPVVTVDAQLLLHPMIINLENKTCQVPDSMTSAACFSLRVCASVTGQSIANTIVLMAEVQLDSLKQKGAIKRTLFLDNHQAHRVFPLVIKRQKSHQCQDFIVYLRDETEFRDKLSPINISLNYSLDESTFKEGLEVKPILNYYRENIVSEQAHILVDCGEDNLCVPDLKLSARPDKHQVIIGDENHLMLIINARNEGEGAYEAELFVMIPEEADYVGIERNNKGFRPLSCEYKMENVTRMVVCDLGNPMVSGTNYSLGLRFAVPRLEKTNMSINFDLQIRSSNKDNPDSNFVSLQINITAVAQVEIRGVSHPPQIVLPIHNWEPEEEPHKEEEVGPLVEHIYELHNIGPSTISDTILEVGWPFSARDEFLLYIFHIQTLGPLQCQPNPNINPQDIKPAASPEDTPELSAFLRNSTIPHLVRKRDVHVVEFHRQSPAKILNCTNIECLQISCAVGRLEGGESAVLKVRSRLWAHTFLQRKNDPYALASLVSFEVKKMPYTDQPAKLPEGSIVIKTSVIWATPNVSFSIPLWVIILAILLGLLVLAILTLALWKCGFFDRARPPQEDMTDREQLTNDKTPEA
# These are yes or no findings as the source states them, for the method shown. Some entries that bind do so weakly or less than the wild type.
# Molecular target: T1, purified recombinant mouse nephronectin (mouse) (UniProt Q91V88)
# T1 sequence: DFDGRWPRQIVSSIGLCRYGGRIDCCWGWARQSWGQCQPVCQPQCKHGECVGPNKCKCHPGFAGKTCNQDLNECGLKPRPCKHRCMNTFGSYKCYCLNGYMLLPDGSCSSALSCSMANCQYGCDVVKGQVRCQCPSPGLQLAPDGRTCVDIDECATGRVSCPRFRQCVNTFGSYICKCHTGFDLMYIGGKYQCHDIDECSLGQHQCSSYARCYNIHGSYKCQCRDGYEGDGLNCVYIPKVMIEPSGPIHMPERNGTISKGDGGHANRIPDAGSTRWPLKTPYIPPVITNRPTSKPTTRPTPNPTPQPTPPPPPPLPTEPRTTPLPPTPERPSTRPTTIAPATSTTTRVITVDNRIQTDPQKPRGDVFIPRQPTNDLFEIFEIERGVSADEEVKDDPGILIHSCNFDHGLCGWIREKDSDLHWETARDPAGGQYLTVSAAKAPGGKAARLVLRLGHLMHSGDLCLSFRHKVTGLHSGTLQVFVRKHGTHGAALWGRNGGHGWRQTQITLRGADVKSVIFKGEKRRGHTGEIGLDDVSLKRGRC
# Test: cell attachment assay; cells bearing the integrin added to 96-well plates coated with the purified ligand; concentration of the small molecule CWHM-12 or CWHM-680 varied; ligand coating optimised with function-neutralizing antibodies (for α8β1 by comparison with parental nontransfected cells); only the target purified
substance,measurement,value
integrin α8β1 (from UniProt P53708 39-1063; P05556 21-798) (receptor),binding,binds
